{
  "sequences": {"note": "Protein sequences, listed by entry. Tags and fused reporters are not part of them.", "UniProt Q0JBA9, entry or part of it": "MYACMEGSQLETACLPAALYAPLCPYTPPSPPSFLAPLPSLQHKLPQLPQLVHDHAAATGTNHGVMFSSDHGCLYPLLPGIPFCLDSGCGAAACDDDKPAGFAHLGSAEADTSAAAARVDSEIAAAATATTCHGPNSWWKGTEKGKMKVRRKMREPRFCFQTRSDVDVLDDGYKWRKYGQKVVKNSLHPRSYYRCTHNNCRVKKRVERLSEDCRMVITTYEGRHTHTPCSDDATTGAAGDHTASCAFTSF"},
  "source": "paper PMC7819943",
  "about": "“Rice protein-binding microarrays: a tool to detect cis-acting elements near promoter regions in rice”",
  "note": "The other results are listed elsewhere or left out.",
  "data": [
    {"biological_target": "OsWRKY34 (Oryza sativa, UniProt Q0JBA9 1-250)", "test": "protein-binding microarray (RPBM); PBS, 2% BSA, 51.3 ng/ul salmon testes DNA, 50 uM zinc acetate, 200 nM TF, 25 C, 1 h; high values mean tight binding", "conditions": "protein: recombinant; tags: N-terminal polyhistidine and DsRed monomer fusion (pET32a); label: CyDye5-dUTP incorporated in the synthesized complementary strand; 3' TTTTT single-stranded linker to array surface; dsDNA, one strand shown", "how_it_was_run": "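Binding signal is defined as the fluorescence intensity of each feature in arbitrary units, read on an Axon 4000B scanner. Transcription factors with N-terminal polyhistidine and DsRed fusions came from E. coli BL21-CodonPlus and were purified on Ni–NTA. They were incubated at 200 nM for 1 h at 25 °C on a custom Agilent array that had been made double-stranded with Cy5-dUTP, with 50 µM zinc acetate present, and the array was washed.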", "values": [
      {"sequence": "ATTTATCAAGAGAGTTGTTGGTTATGTGGGTTCAAGGATACGGAGTCACCTAGTGCAG", "binding signal": "9460 fluorescence intensity (a.u.)"},
      {"sequence": "GATTATGGATGGGTTTTTATTAATAGTCTACGTTTAATATCGGAGTCACCTAGTGCAG", "binding signal": "8160 fluorescence intensity (a.u.)"},
      {"sequence": "TATTATTGCGTTCTCTTGTCTATGTTGATGCTTATTCTATCGGAGTCACCTAGTGCAG", "binding signal": "11400 fluorescence intensity (a.u.)"},
      {"sequence": "TGCTTGTGTTTTTCTTTCTTCATCAGCTTATTCTTATTTTCGGAGTCACCTAGTGCAG", "binding signal": "9430 fluorescence intensity (a.u.)"},
      {"sequence": "AGCCACTGAAGGATAATGTACTACTTTTTTTTACCTTTTACGGAGTCACCTAGTGCAG", "binding signal": "9460 fluorescence intensity (a.u.)"},
      {"sequence": "TGACTGACCGCATCCTCGTCGTCGTTTTCATCAGATGCTGCGGAGTCACCTAGTGCAG", "binding signal": "9510 fluorescence intensity (a.u.)"},
      {"sequence": "AGGATCCTGGTTGCGAAAATTTCTGGTCCACATTGACATTCGGAGTCACCTAGTGCAG", "binding signal": "9090 fluorescence intensity (a.u.)"},
      {"sequence": "GTGTTTCATTCTCTTGTTTTCCTACTTAACGCTTCTAGTTCGGAGTCACCTAGTGCAG", "binding signal": "8260 fluorescence intensity (a.u.)"},
      {"sequence": "AGTACTTACATTCAGTCTCCATTTTGCACAAAAGCATTTGCGGAGTCACCTAGTGCAG", "binding signal": "8090 fluorescence intensity (a.u.)"},
      {"sequence": "GGTTAAACATATTTAAAAAAAAGTCAACGACGTCATATATCGGAGTCACCTAGTGCAG", "binding signal": "14200 fluorescence intensity (a.u.)"},
      {"sequence": "TAATGCCTTTTTTTTTTTTGAATGCCGGCTTAGCTCATTTCGGAGTCACCTAGTGCAG", "binding signal": "9440 fluorescence intensity (a.u.)"},
      {"sequence": "TTCCGCCCGAAGTCTCCACGCTCCCGTGTCCCATTTAAAACGGAGTCACCTAGTGCAG", "binding signal": "9690 fluorescence intensity (a.u.)"},
      {"sequence": "CATACCGCATGTCAATCTTCTTACTCTAGCATTCCTCGTCCGGAGTCACCTAGTGCAG", "binding signal": "9520 fluorescence intensity (a.u.)"},
      {"sequence": "GGGTGTGGGATTTTTTGGTAAGTCATCTCTGACGGCTATACGGAGTCACCTAGTGCAG", "binding signal": "11000 fluorescence intensity (a.u.)"},
      {"sequence": "AATACGCGCACGTTTCACACGTTTTCTTCGCGCCCCACTCCGGAGTCACCTAGTGCAG", "binding signal": "12400 fluorescence intensity (a.u.)"},
      {"sequence": "CAAATATTTACTCATAAATTATTTTTGATGCTTGCTCGTTCGGAGTCACCTAGTGCAG", "binding signal": "8110 fluorescence intensity (a.u.)"},
      {"sequence": "GAGAGACTTAGTTTGACTTGCATTCCCTGACTAGCTAGCTCGGAGTCACCTAGTGCAG", "binding signal": "8120 fluorescence intensity (a.u.)"},
      {"sequence": "ACGTTATGTGTGGTGGGGATAAGTGACAGTGTGGCAGGAACGGAGTCACCTAGTGCAG", "binding signal": "8590 fluorescence intensity (a.u.)"},
      {"sequence": "ATTGTTCATCGTCTGTCGTCTCTACAGCATTAGAGGACATCGGAGTCACCTAGTGCAG", "binding signal": "8900 fluorescence intensity (a.u.)"},
      {"sequence": "GAGGATGGGTGGGCAGTGGCGCAAGGGTTTTATCCAAGCTCGGAGTCACCTAGTGCAG", "binding signal": "10400 fluorescence intensity (a.u.)"},
      {"sequence": "TTTATTTGAAATTTTAAACATCTTCCATATATGTTTTTTTCGGAGTCACCTAGTGCAG", "binding signal": "9010 fluorescence intensity (a.u.)"},
      {"sequence": "TTTCTTACTCACATAAACTTCCAACTTTTCCGTCACATCGCGGAGTCACCTAGTGCAG", "binding signal": "8980 fluorescence intensity (a.u.)"},
      {"sequence": "GATCGTGGTAACAAGACCACTTACAATGTCATGTTGCGTTCGGAGTCACCTAGTGCAG", "binding signal": "8150 fluorescence intensity (a.u.)"},
      {"sequence": "TCCTATTTTTGTGGAATCGGACATATTCTTTTTTTTTCCCCGGAGTCACCTAGTGCAG", "binding signal": "10500 fluorescence intensity (a.u.)"},
      {"sequence": "TTTTCCTTGTACTATGGAGGAGTACTATTTTCTTTCTTTTCGGAGTCACCTAGTGCAG", "binding signal": "8210 fluorescence intensity (a.u.)"},
      {"sequence": "TTCTCTTTTCAACTCAACCATTTTTACTTAGTCTATTAATCGGAGTCACCTAGTGCAG", "binding signal": "8420 fluorescence intensity (a.u.)"},
      {"sequence": "GATTTTTTAATGCAGGGTAGCAACATGTGGGCATATTTATCGGAGTCACCTAGTGCAG", "binding signal": "8530 fluorescence intensity (a.u.)"},
      {"sequence": "TTCTTGATATTCATCGGATCATTAGCCTCTGTTGCTTGCTCGGAGTCACCTAGTGCAG", "binding signal": "8250 fluorescence intensity (a.u.)"},
      {"sequence": "TAACACCCAACACTTACACTCTGGCATTTTGGAGGTCTTGCGGAGTCACCTAGTGCAG", "binding signal": "8990 fluorescence intensity (a.u.)"},
      {"sequence": "ATTTCCCCTGAACTCTACGTTTACAGGTTATGGTTATCTCCGGAGTCACCTAGTGCAG", "binding signal": "8350 fluorescence intensity (a.u.)"},
      {"sequence": "ATCCTCTCCTTGACTTCCTACGAAGATTAATCTATCCTTCCGGAGTCACCTAGTGCAG", "binding signal": "8040 fluorescence intensity (a.u.)"},
      {"sequence": "ATTCCTCGTCTCGCTTCGCTCTTGCTCTTGACTCCGCTCTCGGAGTCACCTAGTGCAG", "binding signal": "11500 fluorescence intensity (a.u.)"},
      {"sequence": "TTCTCTATCTAGCCCTCTTTCCATCATCTTTGGCACCTGCCGGAGTCACCTAGTGCAG", "binding signal": "8750 fluorescence intensity (a.u.)"},
      {"sequence": "CACAAGCTGCAATTAGCCGAAATCCTCCGTATATTTCACCCGGAGTCACCTAGTGCAG", "binding signal": "8360 fluorescence intensity (a.u.)"},
      {"sequence": "TCTGGTTTTGCGGTTCAGTGCCACGGATTAGATTCATGTTCGGAGTCACCTAGTGCAG", "binding signal": "9060 fluorescence intensity (a.u.)"},
      {"sequence": "ACTCTCTACACTAATATGACCAGAGCAGGATTATACTTTTCGGAGTCACCTAGTGCAG", "binding signal": "12200 fluorescence intensity (a.u.)"},
      {"sequence": "CTGTTGTTATACATTATACCTATGAGCGTGTTTGGTTACCCGGAGTCACCTAGTGCAG", "binding signal": "9180 fluorescence intensity (a.u.)"},
      {"sequence": "GTCTTGGGCACCTCGCGTTTCACACTTTTCTTCTGTACCACGGAGTCACCTAGTGCAG", "binding signal": "11800 fluorescence intensity (a.u.)"},
      {"sequence": "ATCGTCTCCTACCTCGCCTCTCTTTCCTTTTTTCCGTCGACGGAGTCACCTAGTGCAG", "binding signal": "11900 fluorescence intensity (a.u.)"},
      {"sequence": "GCATACGCTTCTCGTCTGGCTATATATTAGTATTACAAAACGGAGTCACCTAGTGCAG", "binding signal": "9640 fluorescence intensity (a.u.)"},
      {"sequence": "TGCTTGAATGGTGCTCCACTTGCATTGACTTTCGGCGGCGCGGAGTCACCTAGTGCAG", "binding signal": "9050 fluorescence intensity (a.u.)"},
      {"sequence": "TTTTTTTACTGGGAGATTTTTTTTCTTTTTCTACTGGAGTCGGAGTCACCTAGTGCAG", "binding signal": "10100 fluorescence intensity (a.u.)"},
      {"sequence": "TCGCCAAGCCACCTCCGCCGCCGAAGCCACCACCGCTTCCCGGAGTCACCTAGTGCAG", "binding signal": "8550 fluorescence intensity (a.u.)"},
      {"sequence": "CCGTTCGTCTTATTTAATTTTTTTTGTGATTAGTATTTTTCGGAGTCACCTAGTGCAG", "binding signal": "10300 fluorescence intensity (a.u.)"},
      {"sequence": "CGCTGCCGCCGCCCTGTCGCACCGTCCCCGCCATCCGCTACGGAGTCACCTAGTGCAG", "binding signal": "10100 fluorescence intensity (a.u.)"},
      {"sequence": "TTTGGTTTGCGGCCTAAATTGCCTTACCAATTTTTGTCAACGGAGTCACCTAGTGCAG", "binding signal": "9740 fluorescence intensity (a.u.)"},
      {"sequence": "CGCACGGGTGCCATGTCCAACGTCCGTCATTGATTATGCCCGGAGTCACCTAGTGCAG", "binding signal": "8640 fluorescence intensity (a.u.)"},
      {"sequence": "CATCCGTTTCAAAATGTTTGACACCGTTGACTTTTTAGCACGGAGTCACCTAGTGCAG", "binding signal": "26200 fluorescence intensity (a.u.)"},
      {"sequence": "GTGGATTTTTTTTTTCTTTTCTTTTTTCGTTGTTATTTGTCGGAGTCACCTAGTGCAG", "binding signal": "10600 fluorescence intensity (a.u.)"},
      {"sequence": "CACAGTTCGGATCCGACCACTCCACGTCTCCACCCGGCCGCGGAGTCACCTAGTGCAG", "binding signal": "8340 fluorescence intensity (a.u.)"},
      {"sequence": "ATATTTCGGGTGAGGTCCTCTGAAAAAGTGTCTTTTCTCTCGGAGTCACCTAGTGCAG", "binding signal": "8090 fluorescence intensity (a.u.)"},
      {"sequence": "TTAGTAGTACTTGTTTGTTGGTATGCCGTGCTGCCAAACTCGGAGTCACCTAGTGCAG", "binding signal": "8040 fluorescence intensity (a.u.)"},
      {"sequence": "CGTCGTTGACTTTTTTAAACATATTTGACCGTTCGTCTTACGGAGTCACCTAGTGCAG", "binding signal": "17100 fluorescence intensity (a.u.)"},
      {"sequence": "GGAATTCTCTGCTTCCTGGTGCCTCCACGTCATCCTTTTTCGGAGTCACCTAGTGCAG", "binding signal": "10600 fluorescence intensity (a.u.)"}
    ]}
  ]
}
